# According to PubChem BioAssay AID1671190 (National Center for Advancing Translational Sciences (NCATS), 2021):
# The chains behind the UniProt entries cited, without tags or fusion partners. Where a name states a change or a piece, a line headed by the entry shows the natural chain unless it says otherwise.
# UniProt P18054: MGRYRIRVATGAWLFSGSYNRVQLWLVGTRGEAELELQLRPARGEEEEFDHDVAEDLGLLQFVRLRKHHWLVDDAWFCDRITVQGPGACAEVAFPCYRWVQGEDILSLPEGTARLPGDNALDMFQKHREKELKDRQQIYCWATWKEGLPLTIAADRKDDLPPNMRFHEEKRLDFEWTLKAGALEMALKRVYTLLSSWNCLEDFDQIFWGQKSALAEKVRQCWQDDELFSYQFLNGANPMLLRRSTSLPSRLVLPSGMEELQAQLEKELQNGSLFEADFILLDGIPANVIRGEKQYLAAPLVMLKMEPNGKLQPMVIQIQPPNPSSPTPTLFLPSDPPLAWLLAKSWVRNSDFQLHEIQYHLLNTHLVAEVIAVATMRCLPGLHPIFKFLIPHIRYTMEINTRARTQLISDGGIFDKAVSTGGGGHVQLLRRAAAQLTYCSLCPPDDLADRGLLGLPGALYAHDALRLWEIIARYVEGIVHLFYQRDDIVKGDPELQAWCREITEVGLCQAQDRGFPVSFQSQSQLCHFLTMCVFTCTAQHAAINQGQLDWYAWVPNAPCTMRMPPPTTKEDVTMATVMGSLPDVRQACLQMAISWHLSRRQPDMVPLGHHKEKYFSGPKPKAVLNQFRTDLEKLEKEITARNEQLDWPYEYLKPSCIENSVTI
# About 6,100 (1.1%) of roughly 580,000 compounds were called active. This list was built around the results that the source calls inconclusive (neither active nor inactive); the mix of calls is not that of the screen. The call rests on the fitted dose curve; in most records, active means well fitted inhibition curve with a large enough effect; inconclusive means small, poorly fitted or top-dose-only effect, or another doubt; inactive means no such curve, though single readings can be large or run the other way. Potencies beside an inconclusive call are fits to weak or partial responses and may not hold up.
# Target: Polyunsaturated fatty acid lipoxygenase ALOX12 (Homo sapiens) (UniProt P18054)
# Assay: Primary qHTS assay for inhibitors of human arachidonate 12S-lipoxygenase (ALOX12): Round 2
# Conditions: purified 12hLO, xylenol orange hydroperoxide absorbance; series mostly up to 108 µM
# Method in brief: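 Purified human 12hLO (150 nM final) in 25 mM Hepes, 0.01% Triton X-100, pH 7.0 was preincubated 15 min at room temperature with compound. Then 40 uM arachidonic acid was added, 30 min. Hydroperoxide was read by Fe-XO absorbance ratio 573/405 nm.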
# Potency means the concentration at half of the fitted maximal effect.
row,Compound,Potency
1,Cc1cc(-n2c(C)cc(-c3csc(NC4CC4)n3)c2C)no1,"inconclusive: 28.2 µM [inhibitor, partial curve, poor fit]"
2,CCOC(=O)c1ccc(Nc2nc3ccccc3nc2NS(=O)(=O)c2ccc(OC)cc2)cc1,"inconclusive: 2.82 µM [inhibitor, full curve, poor fit]"
3,O=C(/C=C/c1ccccc1)N1CCC(c2ccccc2)C1 (centres undefined),inactive
4,CC(C)(C)c1ccc(NC(=O)C2CCCN2S(=O)(=O)c2ccc(F)cc2)cc1 (centres undefined),inactive
5,Cn1cccc1/C=N/NC(=O)c1ccccn1,inactive
6,COc1cc(NS(=O)(=O)c2ccc(NC(=S)NC(=O)/C=C/c3ccco3)cc2)ncn1,"inconclusive: 44.7 µM [inhibitor, partial curve]"
7,O=c1[nH]nc2n1CCC(NS(=O)(=O)Cc1ccccc1F)CC2 (centres undefined),inactive
8,CN(CCOc1ccccc1)C(=O)c1cc(Cl)c[nH]1,inactive
9,Cc1ccc(NC(=O)c2cc(S(=O)(=O)N(C)C3CCCCC3)ccc2F)cc1C,inactive
10,COc1ccc(-c2c3c(=O)n(C)c(=O)n(C)c3c3n2-c2ccccc2NC3c2ccc(OC)cc2)cc1 (centres undefined),"inconclusive: 63.1 µM [inhibitor, partial curve, poor fit]"
11,COc1ccc(NC(=O)c2ccc(-c3nc(CSc4ccc(C)cc4)c(C)o3)cc2)cc1Cl,inactive
12,COC(=O)C1=C(C)N(Cc2ccc(Br)cc2)C(=S)NC1c1ccc(F)cc1 (centres undefined),active: 39.8 µM
13,COCCNc1ncnc2ccc(-c3ccccc3C(F)(F)F)cc12,active: 20 µM
14,O=S1(=O)CCN(C2CCCCC2)c2c(F)nc(N3CCCCC3)c(F)c21,"inconclusive: 35.5 µM [inhibitor, partial curve, poor fit]"
15,COc1ccc(Cl)cc1C(=O)NC1CCN(c2cc(-c3ccccc3)[nH]n2)C1 (centres undefined),inactive
16,O=S(=O)(c1cccc2nonc12)N1CCC2(CCCNC2)C1 (centres undefined),"inconclusive: 7.94 µM [inhibitor, full curve, poor fit]"
17,Cc1ccc2c(c1)SC(C(=O)Nc1ccc(C)c(C)c1)C2 (centres undefined),"inconclusive: 44.7 µM [inhibitor, partial curve, poor fit]"

row,Compound,Potency
1,Cc1nc2cc(-c3ccc(Cl)cc3)nn2c(C)c1CCC(=O)NC(C)c1ccc2c(c1)OCCO2 (centres undefined),"inconclusive: 89.1 µM [inhibitor, single point]"
2,COc1ccc(CN(C(=O)c2snc(C(N)=O)c2N)C(C(=O)NC2CCCC2)c2cc(OC)ccc2OC)cc1 (centres undefined),"inconclusive: 50.1 µM [inhibitor, partial curve, poor fit]"
3,O=C(O)CSc1cccc[n+]1[O-],inactive
4,Cc1nn(C)c(C)c1NC(=O)c1cc2sccc2n1Cc1ccccc1,"inconclusive: 126 µM [inhibitor, single point]"
5,COc1ccc(NC(=O)Cc2nnc(SCC(=O)NC34CC5CC(CC(C5)C3)C4)n2C)cc1,inactive
6,C=CC[n+]1cccc(-c2cc3ccc(C)cc3[nH]2)c1,"inconclusive: 56.2 µM [inhibitor, partial curve, poor fit]"
7,Cc1ccc(C(=O)Nc2ccc(N(C)C)cc2)cc1C,"inconclusive: 100 µM [inhibitor, single point]"
8,CC1(C(=O)NS(=O)(=O)Cc2ccccc2C(F)(F)F)CCN1C(=O)Cc1cccs1 (centres undefined),"inconclusive: 50.1 µM [inhibitor, partial curve, poor fit]"
9,O=c1[nH]c(C2CCN(CC3CCCC3)CC2)nc2ccc(F)cc12,"inconclusive: 28.2 µM [inhibitor, single point]"
10,N#Cc1cc(-c2ccccc2)cnc1Sc1ccc(Cl)cc1,inactive
11,CC(C)NC(=O)c1cc(-c2cccs2)nc2ccccc12,"inconclusive: 44.7 µM [inhibitor, partial curve, poor fit]"
12,Cc1ccnc(SCC(=O)c2cccc([N+](=O)[O-])c2)n1,"inconclusive: 11.2 µM [inhibitor, full curve, poor fit]"
13,CN(CC(=O)Nc1cccc(F)c1)C(=O)CN1c2cccc3cccc(c23)S1(=O)=O,"inconclusive: 50.1 µM [inhibitor, partial curve, poor fit]"
14,C=C(C)Cn1c(CCNC(=O)CC)nc2ccccc21,inactive
15,CCN(CC(=O)Nc1c(F)cccc1F)C(=O)c1ccc(C(=O)c2ccccc2)cc1,inactive
16,COc1ccc(NC(=O)C(c2ccc(C)cc2)N(C)C(=O)/C=C\c2ccc3c(c2)OCO3)cc1 (centres undefined),"inconclusive: 44.7 µM [inhibitor, partial curve, poor fit]"
17,Clc1ccc2c(NCCNC3CCCCC3)ccnc2c1,"inconclusive: 112 µM [inhibitor, single point]"

# As a working copy, part of the list above.
row,Compound,Potency
13,CN(CC(=O)Nc1cccc(F)c1)C(=O)CN1c2cccc3cccc(c23)S1(=O)=O,"inconclusive: 50.1 µM [inhibitor, partial curve, poor fit]"
14,C=C(C)Cn1c(CCNC(=O)CC)nc2ccccc21,inactive
